Laboratory results taken from patent US20200071424A1.
These are yes or no findings as the source states them, for the method shown. Some binding calls cover weakened binding; strength is not graded here.

T1: human [202-500]-mouse chimeric EL (mouse; human) (UniProt Q9WVG5)
T1 sequence: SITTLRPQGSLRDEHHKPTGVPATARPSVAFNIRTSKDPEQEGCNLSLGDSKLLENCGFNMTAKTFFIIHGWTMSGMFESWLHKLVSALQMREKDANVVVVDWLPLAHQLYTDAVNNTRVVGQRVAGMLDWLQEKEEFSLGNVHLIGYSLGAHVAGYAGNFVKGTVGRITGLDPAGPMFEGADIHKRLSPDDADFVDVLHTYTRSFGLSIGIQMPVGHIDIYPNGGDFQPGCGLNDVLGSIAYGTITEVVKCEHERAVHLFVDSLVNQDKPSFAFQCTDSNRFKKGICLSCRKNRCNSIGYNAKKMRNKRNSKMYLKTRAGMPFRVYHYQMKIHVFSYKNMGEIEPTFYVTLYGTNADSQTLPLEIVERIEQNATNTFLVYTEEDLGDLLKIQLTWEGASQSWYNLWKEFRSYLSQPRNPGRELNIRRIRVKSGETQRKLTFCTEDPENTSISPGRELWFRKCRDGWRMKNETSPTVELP


Legend:
[1] = biological target: human [1-305]-mouse chimeric EL (human; mouse) (UniProt Q9WVG5); experiment: ELISA; Ab captured on anti-mouse IgG-Fc; EL heparin extract
[2] = biological target: T1, human [202-500]-mouse chimeric EL (mouse; human); experiment: as above
[3] = biological target: human [1-305]-mouse chimeric EL (human; mouse) (UniProt Q9WVG5); experiment: ELISA: antibody captured on anti-mouse IgG-Fc plate, EL heparin extract added, detection with biotin anti-C2-tag antibody and HRP-streptavidin, A450
[4] = biological target: T1, human [202-500]-mouse chimeric EL (mouse; human); experiment: as above
[5] = biological target: human [1-157]-mouse chimeric EL (human; mouse) (UniProt Q9WVG5); experiment: ELISA; Ab captured on anti-mouse IgG-Fc; EL heparin extract
[6] = biological target: human [1-157]-mouse chimeric EL (human; mouse) (UniProt Q9WVG5); experiment: ELISA: antibody captured on anti-mouse IgG-Fc plate, EL heparin extract added, detection with biotin anti-C2-tag antibody and HRP-streptavidin, A450

Binder	binding [1]	binding [2]	binding [3]	binding [4]	binding [5]	binding [6]
16B3 (antibody, mouse IgG2a, V domains shown) VH: DVKLVESGGGLVQPGGSLKLSCTASGFTFSGYTMSWVRQTPEKRLELVAEISFARDRAFYPDTVKGRFTISRDNAKNTLYLQMSSLKSEDTAMYYCTRLGGRNHDYWYFDVWGTGTTVTVSS VL: DIVLTQSPTSLAVSPGQRATISCRASESVEYYGTSLMQWYQQKPGQRPQLLIYAASNVESGVPARFSGSGSGTDFSLNIHPVEEDDIAVYFCQQSWKVPFTFGSGTKLEIK	binds	binds	binds	binds	–	–
7D4 (antibody, mouse IgG1, V domains shown) VH: QIQLVQSGPELKKPGETVKISCKASGYTFTNYGMNWVKQAPGKDLKWMGWINTYSGVPTYADDFKGRFAFSLETSASTAYLQINNLKNEDTATYFCARFSYYGRHYFDYWGQGTTLTVSS VL: DIVLTQSPASLAVSLGQRATISCKASQSVDYDGDSYMNWYQQKPGQPPQLLIYAASNLGSGIPARFSGSGSGTDFTLNIHPVEEEDAATYYCHQSTDDPPWTFGGGTKLEIK	–	–	–	–	binds	binds
14A1 (antibody, mouse IgG1, V domains shown) VH: QIQLVQSGPELKKPGETVKISCKASGYTFTNYGMNWVKQAPGKGLKWMGWINTYSGVPTYADDFKGRFAFSLETSASTAYLQINNFKNEDTATYFCARFSYYGRHYFDYWGQGTALTASS VL: DIVLTQSPASLAVSLGQRATISCKASQSVDYDGDSYMNWYQQKPGQPPKLLIYAASNLKSGIPARFSGSGSGTDFTLNIHPVEEEDAATYYCQQTTDDPPWTFGGGTKLEIK	–	–	–	–	binds	binds
14E1 (antibody, mouse IgG1, V domains shown) VH: QVQLQQSGAELVKPGASVRLSCKASGYTFTKYTIHWVKQRSGQGLEWIGWFYPGSDSIKYNEKFKDKATLTADKSSRTVYMELSRLTSEDSAVYFCARHEEYTNSLAYWGQGTLVTVSA VL: DIQMTQTTSSLSASLGDRVTISCRASQDISNYLNWYQQQPDGTVKLLIYYTSRLHSGVPSRFSGSGSGTDYSLTISNLEQEDIATYFCQQGYTLPWTFGGGTNLEIK	binds	binds	binds	binds	–	–
13B3 (antibody, mouse IgG2a, V domains shown) VH: EVQLQQSGPELLKPGASVKISCKASGYTFTEYTMHWVKQSHGKSLEWIGSINPYYGGTSYNEKFKDKATLTVDKSSNTAYMEFRSLTSEDCAVYYCARYGNYVGYFDYWGQGTTLTVSS VL: ENVLTQSPAIMSASLGEKVTMSCRASSSVHYMYWYQQKSDASPKLWIYYTSNLAPGVPDRFSGSGSGNSYSLTISSMEGEDAATYYCQQFTSSPYTFGGGTKLEIK	–	–	–	–	binds	binds
16F6 (antibody, V domains shown) VH: QVQLQQSGAELMKPGASVKISCKATGYTFSTYWIAWVKQRPGHGLEWIGEILPGSAKTKYNKKFKGKATFTADTSSNTAYMQLSSLTSEDSAVYYCAVYDYGADYWGQGTSVTVSS VL: DIVMTQSHKFMSTSVGDRVSITCKASQDVYTAVAWYQQKPGQSPKLLIYSASYRFTGVPDRFTGSGAGTEFTFTINSVQAEDLAVYYCQQHYSIPRTFGGGTKLEIK	–	–	binds	–	–	–

Continued, values first:

binding [1]	binding [2]	binding [3]	binding [4]	binding [5]	binding [6]	Binder
binds	binds	binds	binds	–	–	19E7 (antibody, mouse IgG2a, V domains shown) VH: QVQLQQPGSVLVRPGASVKLSCKASGYTFTTYWMHWVKQRPGQGLEWIGEIHPYSGNNNNNEKFKGKATLTVDTSSSTAYVDLSRLTSEDSAVYYCARYDSNYVFAYWGQGTLVTVSA VL: QIVLTQSPAIMSASPGEGVTITCSASSSVSYMHWFQQKPGTSPKLWIYSTSNLASGVPARFSGSGSGTSYSLTISRMEAEDAATYYCQQRDSYLTFGSGTKLEVK
–	–	–	–	binds	binds	55A1 (antibody, mouse IgG2a, V domains shown) VH: QIHLVQSGPELKKPGETVKISCKASGYTFTNYGMNWVKQAPGKGLKWMGWINTYSGVPTYAGDFKGRFAFSLETSASTAYLQINNLKNEDTATYFCARRGYYGRRYFDVWGTGTTVTVSS VL: DIVLTQSPASLAVSLGQRATISCKASQSVDYDVDSYMHWYQQKPGQPPKLLIYAASNLASGIPARFSGGGSGTDFTLNIHPVEEEDVATYYCQQTIEDPPTFGGGTKLEIK
–	–	–	–	binds	binds	23H8 (antibody, mouse IgG2a, V domains shown) VH: EVQLQQSGPELLKPGASVKISCKASGYTFTDNTIHWVKQSHGKSLEWIGHINPYYGGTNNNEKFKDKATLTVDKSSSTAYMELRSLTSEDSAIYYCARKGIYYSSPFDYWGQGTTLTVSS VL: DIQMTQTTSSLSASLGDRVTISCRASQDINNYLNWYQQKPDGTVKLLISYTSKLHSGVPSRFSGSGSGTDYSLTISNLEREDFATYFCQQGNTLPFTFGSGTNLEIK
–	–	–	–	binds	binds	53A11 (antibody, mouse IgG2a, V domains shown) VH: EVQLQQSGPELLKPGASVKISCKASGYTFTDYTMHWVKQSHGKSLEWIGGINPYYGGTTYNEKFKDKATLTVDKSSSTAYMELRSLTSEDSAVYYCAKGDYYGGSYNYWGQGTTLTVSS VL: DIVLTQSLATLSVTPGDSVSLSCRASQDISNSLHWYQQKSHESPRLLIKYASQSISGIPSRFSGSGSGTDFTLSINSVETEDFGMYFCQQSNSWPYTFGGGTKLEIK
